Measured values reported in article PMC10558455.
These are yes or no findings as the source states them, for the method shown. Binding seen in cells or lysates may run through a third protein. Here binding means that the protein was enriched with, or labelled near, the bait; the list need not be complete. Sequences can lack the tags named with a protein.

Chains of the proteins cited; added tags and fusions are not shown.
UniProt P35579: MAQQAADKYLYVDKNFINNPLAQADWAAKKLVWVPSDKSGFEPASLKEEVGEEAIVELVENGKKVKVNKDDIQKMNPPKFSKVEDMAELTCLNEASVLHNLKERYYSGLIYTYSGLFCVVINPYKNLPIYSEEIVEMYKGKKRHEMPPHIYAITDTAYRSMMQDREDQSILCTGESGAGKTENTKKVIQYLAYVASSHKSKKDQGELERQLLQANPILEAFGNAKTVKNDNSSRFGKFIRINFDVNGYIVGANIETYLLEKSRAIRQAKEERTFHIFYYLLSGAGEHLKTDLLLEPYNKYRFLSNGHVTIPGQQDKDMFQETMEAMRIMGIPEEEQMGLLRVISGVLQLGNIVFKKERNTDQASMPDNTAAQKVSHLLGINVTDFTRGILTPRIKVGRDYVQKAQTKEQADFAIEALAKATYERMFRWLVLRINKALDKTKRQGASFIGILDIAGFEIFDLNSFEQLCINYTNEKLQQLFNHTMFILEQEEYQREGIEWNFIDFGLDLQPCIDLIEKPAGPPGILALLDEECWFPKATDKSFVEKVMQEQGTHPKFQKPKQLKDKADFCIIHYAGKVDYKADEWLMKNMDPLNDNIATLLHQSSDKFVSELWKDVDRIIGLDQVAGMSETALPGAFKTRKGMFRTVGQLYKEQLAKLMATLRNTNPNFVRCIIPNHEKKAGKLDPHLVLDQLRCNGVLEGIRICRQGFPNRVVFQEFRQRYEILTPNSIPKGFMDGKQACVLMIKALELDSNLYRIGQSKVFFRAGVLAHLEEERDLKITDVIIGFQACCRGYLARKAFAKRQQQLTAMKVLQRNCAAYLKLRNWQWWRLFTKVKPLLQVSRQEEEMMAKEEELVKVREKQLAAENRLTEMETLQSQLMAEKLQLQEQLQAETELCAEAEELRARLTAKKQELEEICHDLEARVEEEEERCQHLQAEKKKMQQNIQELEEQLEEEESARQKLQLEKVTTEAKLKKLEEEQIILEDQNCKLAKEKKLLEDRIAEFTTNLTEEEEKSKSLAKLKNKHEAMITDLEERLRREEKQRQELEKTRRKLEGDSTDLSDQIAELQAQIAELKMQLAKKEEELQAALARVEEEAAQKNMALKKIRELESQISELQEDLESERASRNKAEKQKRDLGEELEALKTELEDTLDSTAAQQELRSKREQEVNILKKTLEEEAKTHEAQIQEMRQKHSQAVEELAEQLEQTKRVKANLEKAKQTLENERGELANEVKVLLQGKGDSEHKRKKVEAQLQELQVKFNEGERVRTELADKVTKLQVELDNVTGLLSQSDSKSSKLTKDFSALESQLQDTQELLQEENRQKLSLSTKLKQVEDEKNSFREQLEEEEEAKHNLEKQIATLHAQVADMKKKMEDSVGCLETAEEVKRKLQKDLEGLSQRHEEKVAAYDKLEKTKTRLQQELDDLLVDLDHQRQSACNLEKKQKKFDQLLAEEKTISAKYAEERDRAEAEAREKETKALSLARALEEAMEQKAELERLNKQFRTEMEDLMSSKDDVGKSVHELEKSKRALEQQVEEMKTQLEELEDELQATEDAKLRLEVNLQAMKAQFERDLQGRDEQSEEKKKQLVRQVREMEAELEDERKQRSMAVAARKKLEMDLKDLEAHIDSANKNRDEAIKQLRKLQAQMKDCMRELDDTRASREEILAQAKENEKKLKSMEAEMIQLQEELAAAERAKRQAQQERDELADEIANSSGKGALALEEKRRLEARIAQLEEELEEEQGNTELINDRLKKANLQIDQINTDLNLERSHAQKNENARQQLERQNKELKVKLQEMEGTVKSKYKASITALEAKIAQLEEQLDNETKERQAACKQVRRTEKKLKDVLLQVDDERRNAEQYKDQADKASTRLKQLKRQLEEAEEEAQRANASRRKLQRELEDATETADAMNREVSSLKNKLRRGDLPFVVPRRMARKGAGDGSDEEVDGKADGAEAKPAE
UniProt Q00610: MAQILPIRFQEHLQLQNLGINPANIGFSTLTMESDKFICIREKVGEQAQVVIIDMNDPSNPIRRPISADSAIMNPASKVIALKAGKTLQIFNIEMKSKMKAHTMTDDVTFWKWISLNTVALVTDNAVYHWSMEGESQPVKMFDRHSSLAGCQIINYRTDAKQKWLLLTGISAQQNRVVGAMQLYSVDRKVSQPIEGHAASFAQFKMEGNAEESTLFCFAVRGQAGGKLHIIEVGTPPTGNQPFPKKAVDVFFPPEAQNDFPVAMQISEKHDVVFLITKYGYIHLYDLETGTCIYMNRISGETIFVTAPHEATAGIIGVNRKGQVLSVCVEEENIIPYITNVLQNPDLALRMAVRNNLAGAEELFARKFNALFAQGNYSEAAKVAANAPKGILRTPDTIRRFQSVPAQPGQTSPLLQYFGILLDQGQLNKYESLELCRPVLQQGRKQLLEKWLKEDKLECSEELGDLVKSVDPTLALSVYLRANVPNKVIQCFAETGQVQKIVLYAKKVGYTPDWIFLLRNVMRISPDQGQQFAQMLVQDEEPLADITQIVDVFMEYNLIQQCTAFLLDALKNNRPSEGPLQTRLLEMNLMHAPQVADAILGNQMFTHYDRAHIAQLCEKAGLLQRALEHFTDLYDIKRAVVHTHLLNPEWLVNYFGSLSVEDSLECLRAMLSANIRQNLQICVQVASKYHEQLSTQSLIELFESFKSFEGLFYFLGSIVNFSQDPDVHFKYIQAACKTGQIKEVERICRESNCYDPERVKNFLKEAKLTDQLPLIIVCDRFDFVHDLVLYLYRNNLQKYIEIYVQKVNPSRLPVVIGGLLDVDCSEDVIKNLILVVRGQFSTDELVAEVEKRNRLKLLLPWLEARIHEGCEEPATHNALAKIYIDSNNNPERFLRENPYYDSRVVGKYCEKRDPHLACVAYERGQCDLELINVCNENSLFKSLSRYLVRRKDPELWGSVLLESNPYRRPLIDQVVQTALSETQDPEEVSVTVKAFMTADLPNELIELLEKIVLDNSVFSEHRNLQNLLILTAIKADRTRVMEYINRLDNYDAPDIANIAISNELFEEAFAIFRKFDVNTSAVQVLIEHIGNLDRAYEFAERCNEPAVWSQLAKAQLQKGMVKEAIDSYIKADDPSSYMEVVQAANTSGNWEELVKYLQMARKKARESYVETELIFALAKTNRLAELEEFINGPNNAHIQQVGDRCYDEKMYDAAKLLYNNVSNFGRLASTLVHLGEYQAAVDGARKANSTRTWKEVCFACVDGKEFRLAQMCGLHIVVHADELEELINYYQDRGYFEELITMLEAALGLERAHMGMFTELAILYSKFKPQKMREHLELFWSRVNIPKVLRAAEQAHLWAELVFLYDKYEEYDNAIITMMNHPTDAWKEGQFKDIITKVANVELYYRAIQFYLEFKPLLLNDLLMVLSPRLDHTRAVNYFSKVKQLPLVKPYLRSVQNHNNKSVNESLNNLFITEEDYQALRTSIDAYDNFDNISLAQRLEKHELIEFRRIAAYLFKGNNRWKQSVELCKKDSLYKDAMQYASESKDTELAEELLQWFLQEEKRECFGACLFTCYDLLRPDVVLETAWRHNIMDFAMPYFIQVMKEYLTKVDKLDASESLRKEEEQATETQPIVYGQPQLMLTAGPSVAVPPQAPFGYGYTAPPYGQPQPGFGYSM
UniProt Q99942: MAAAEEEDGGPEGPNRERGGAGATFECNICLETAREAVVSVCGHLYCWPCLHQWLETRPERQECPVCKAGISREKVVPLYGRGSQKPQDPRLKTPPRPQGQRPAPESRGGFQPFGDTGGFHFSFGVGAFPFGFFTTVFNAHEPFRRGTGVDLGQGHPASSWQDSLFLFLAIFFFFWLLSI

Target: T1, GFP-Rab41 (human) (UniProt Q5JT25)
T1 sequence: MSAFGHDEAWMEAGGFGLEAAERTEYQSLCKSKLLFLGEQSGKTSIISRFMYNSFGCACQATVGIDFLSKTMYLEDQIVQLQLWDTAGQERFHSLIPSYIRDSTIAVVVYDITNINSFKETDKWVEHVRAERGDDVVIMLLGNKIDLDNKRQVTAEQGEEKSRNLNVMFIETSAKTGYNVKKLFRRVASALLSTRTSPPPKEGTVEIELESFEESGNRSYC
Assay: affinity purification with mass spectrometry; HEK293T expressing GFP or GFP-Rab41, treated with DMSO or LLOMe; GFP-Trap beads; n = 4; proteins found in the GFP-only condition removed

binding | Substance
binds | MYH9 (from UniProt P35579 1-1960)
binds | CLTC (from UniProt Q00610 1-1675)
binds | RNF5 (from UniProt Q99942 1-180)
